We go through 12 substances from article PMC4864350 (PLoS ONE, 2016).

This series in a line: general procedure: Fmoc solid-phase peptide synthesis; Rink amide-functionalised aminomethyl polystyrene (1% DVB, 100–200 mesh, loading 1.2 mmol/g); DIC/Oxyma. The conditions noted are these: whole synthesis, ELSD.

As to Asp-Ala-Pro-Asp, the “final purity (method not given)” value is reported as 95%.
On to Asp-Ala-Val-Asp, for which the “final purity (method not given)” value is on record as 99%.
Asp-Asn-Pro-Asp: the “final purity (method not given)” value is given as 94%.
For Asp-Asn-Val-Asp the value was 98%; for Asp-Gly-Pro-Asp, 93%; for Asp-Gly-Val-Asp, 97%.
Consider Asp-Leu-Pro-Asp, for which the “final purity (method not given)” value is 90%.
Consider Asp-Leu-Val-Asp, for which the “final purity (method not given)” value came to 96%.
In the case of Asp-Pro-Val-Asp, the “final purity (method not given)” value turned out to be 93%.
For Asp-Val-Pro-Asp, the “final purity (method not given)” value was 100%.
For Asp-Val-Val-Asp, the “final purity (method not given)” value came to 99%.
On to DLPD-Ahx-K(Me), for which the “final purity (method not given)” value is 100%.
